No constants are given. Whether binding was seen depends on the method and setting. Binding seen in cells or lysates may run through a third protein. Binding can be weak; no strength is given.
Experiments:
[1] = target: P. falciparum Isd11 with C-terminal His6 tag expressed in E. coli (P. falciparum) (UniProt Q8IEK7); experiment: pull-down; Ni-NTA pulldown of Isd11-His6 from lysates of E. coli coexpressing ∆2–50 mACP-HA2 (WT or F113A); western blot with anti-HA and anti-His6
[2] = target: P. falciparum Isd11 with C-terminal His6 tag expressed in E. coli (P. falciparum) (UniProt Q8IEK7); experiment: pull-down + SEC; clarified lysate of E. coli coexpressing ∆2–50 mACP-HA2 and His-tagged Isd11; Ni-NTA pulldown of Isd11, imidazole eluate run over an S-100 size-exclusion column; Coomassie-stained SDS-PAGE and tandem MS

B1: Truncated (∆2–50) P. falciparum mACP-HA2 expressed in E. coli (domain or fragment, UniProt Q8I0V5 51-157)
chain: LSAQKNSAFFSTEKSQDLSSLSKEQIEEKILTVLKKYLPPDVEIKYDEELEKYNTKDNRAWDFLDTVEFLIDIESEFNITIPDETADNIKTVQEVIDYIIQLNIKKT
binding [1]: binds
binding [2]: binds

— paper PMC8547962
